From PMC4218952
These are yes or no findings as the source states them, for the method shown. In cells and extracts the contact can be indirect. Some binding calls cover weakened binding; strength is not graded here. Each block holds one substance with its values, some of them ahead of it.

The chains behind the UniProt entries cited, without tags or fusion partners. Residues count along the entry.
UniProt Q13002, residues 32-908: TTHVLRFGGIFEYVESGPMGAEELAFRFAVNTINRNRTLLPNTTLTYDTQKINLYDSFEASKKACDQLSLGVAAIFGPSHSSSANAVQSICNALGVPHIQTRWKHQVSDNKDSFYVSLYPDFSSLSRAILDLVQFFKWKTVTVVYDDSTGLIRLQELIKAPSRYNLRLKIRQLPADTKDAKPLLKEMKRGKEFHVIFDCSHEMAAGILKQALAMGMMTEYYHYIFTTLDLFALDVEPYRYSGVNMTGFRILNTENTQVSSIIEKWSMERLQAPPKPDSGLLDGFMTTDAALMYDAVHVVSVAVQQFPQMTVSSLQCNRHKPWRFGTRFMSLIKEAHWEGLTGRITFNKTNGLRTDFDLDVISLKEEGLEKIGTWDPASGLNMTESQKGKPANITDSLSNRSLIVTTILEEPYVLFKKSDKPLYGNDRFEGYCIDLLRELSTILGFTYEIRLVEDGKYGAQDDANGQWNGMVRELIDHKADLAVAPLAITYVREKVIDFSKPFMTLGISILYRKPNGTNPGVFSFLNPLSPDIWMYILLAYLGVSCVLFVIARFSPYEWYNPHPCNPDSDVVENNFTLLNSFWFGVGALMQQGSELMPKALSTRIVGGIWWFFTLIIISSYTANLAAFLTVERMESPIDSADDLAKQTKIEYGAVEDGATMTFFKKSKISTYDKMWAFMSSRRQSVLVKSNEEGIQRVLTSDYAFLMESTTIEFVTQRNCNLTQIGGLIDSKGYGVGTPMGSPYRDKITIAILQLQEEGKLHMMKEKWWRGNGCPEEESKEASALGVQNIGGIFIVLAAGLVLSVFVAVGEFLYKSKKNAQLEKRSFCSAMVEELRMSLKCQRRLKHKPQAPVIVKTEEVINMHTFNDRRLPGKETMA
UniProt O60260: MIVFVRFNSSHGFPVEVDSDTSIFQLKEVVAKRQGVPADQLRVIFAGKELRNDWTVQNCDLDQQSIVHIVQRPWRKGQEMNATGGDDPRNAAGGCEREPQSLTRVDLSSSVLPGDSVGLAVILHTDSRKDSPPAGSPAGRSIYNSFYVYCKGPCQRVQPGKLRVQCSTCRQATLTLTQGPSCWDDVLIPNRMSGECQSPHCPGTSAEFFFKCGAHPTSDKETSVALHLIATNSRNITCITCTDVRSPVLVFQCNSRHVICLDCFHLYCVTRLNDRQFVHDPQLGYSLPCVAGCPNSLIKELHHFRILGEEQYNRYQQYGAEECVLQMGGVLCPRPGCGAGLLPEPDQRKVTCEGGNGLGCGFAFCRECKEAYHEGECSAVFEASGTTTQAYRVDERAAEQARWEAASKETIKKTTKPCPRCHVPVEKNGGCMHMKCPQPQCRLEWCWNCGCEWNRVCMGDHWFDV
UniProt P39087, residues 32-908: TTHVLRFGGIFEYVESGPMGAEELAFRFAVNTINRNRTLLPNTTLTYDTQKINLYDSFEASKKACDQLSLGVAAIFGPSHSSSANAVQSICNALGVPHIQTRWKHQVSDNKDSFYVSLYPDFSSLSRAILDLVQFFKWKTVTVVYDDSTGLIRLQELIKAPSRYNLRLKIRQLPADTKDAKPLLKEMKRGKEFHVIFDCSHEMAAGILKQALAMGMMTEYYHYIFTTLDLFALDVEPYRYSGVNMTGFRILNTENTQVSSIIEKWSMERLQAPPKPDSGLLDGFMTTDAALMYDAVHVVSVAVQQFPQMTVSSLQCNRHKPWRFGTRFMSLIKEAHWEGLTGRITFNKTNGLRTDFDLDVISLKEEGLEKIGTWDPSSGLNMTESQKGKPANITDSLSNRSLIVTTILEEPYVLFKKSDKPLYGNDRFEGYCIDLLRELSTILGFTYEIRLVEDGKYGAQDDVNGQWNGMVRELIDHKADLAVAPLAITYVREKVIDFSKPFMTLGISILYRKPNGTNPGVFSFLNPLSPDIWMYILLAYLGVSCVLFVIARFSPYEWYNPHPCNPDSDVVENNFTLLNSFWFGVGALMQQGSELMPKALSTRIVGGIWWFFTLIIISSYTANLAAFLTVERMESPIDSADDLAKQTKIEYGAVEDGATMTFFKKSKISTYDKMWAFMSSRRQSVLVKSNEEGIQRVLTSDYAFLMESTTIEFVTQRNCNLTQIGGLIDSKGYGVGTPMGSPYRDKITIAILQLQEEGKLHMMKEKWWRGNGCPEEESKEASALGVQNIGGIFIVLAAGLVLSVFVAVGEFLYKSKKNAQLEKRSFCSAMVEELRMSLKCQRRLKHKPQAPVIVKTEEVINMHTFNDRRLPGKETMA

Columns and labels:
[1] = target: GluK2a-YFP (UniProt Q13002); test: FRET or BRET; FRET between GluK2a-YFP and CFP-parkin in HEK293T cells, pixel-by-pixel FRET efficiency; also before and after 10 min with 10 mM glutamate
[2] = target: T1, endogenous parkin (mouse brain) (mouse (endogenous in brain)) (UniProt Q9WVS6); test: co-IP; endogenous proteins in whole mouse brain and whole human brain lysates; parkin antibody, Protein A or G agarose, washes with 500 mM NaCl, 1% Triton X-100
T1 sequence: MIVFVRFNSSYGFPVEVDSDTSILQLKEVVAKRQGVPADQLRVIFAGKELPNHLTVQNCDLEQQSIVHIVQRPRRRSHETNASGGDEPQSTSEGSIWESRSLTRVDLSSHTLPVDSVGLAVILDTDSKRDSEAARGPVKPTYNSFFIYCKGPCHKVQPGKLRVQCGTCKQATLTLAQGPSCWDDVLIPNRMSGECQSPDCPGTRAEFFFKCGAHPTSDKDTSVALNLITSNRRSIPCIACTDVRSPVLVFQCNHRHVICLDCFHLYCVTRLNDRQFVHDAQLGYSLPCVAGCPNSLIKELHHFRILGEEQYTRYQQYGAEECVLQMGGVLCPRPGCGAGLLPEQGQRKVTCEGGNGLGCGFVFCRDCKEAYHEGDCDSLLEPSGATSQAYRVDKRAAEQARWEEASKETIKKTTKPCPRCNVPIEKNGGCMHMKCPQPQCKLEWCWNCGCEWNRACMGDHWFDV

[3] = target: endogenous parkin (human brain) (human (endogenous in brain)) (UniProt O60260); test: as above

- binding [1]: binds
Substance: CFP-parkin (from UniProt O60260 1-465) (enzyme)

- binding [2]: binds weakly
Substance: endogenous GluK2 (mouse brain) (from UniProt P39087 32-908) (receptor)

- binding [3]: binds weakly
Substance: endogenous GluK2 (human brain) (from UniProt Q13002 32-908) (receptor)
